{"source": "PubChem BioAssay AID1259308 (NCATS, 2017)", "assay": "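Genes whose loss raises luciferase production in HEK293 cells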 (primary screen)", "cells": "human HEK293 embryonic kidney cells stably expressing firefly luciferase (HEK-CMV-Luc2-Hygro)", "reagent": "single siRNA against human genes, 0.8 pmol siRNA per well", "time to read-out": "72 h", "detection": "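Reporter luminescence and viable-cell signal on separate replicate plates, given as percent of non-targeting control and median/MAD z-scores, plus per-cell luciferase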", "scale": "total luciferase, z-score: higher = more reporter protein produced", "hit rule": "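Active when the median/MAD z-score for overall luciferase is greater than 3; a gene was taken forward for validation with new siRNAs if at least two of its three siRNAs passed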", "meaning of the calls": "active = raised luciferase; inactive = no rise", "note": "Here is one part, drawn at random, of about 59,000 deposited reagents. Of all reagents, about 1,510 (2.6%) were called active. 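Calls use total luciferase alone and ignore viability, so some active siRNAs may act by altering cell number.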 Further read-outs or replicates are left out here."}
{"target": "CEACAM22P", "PubChem SID": "SID160765887", "total luciferase, z-score": -0.111, "Outcome": "inactive"}
{"target": "CEACAM22P", "PubChem SID": "SID160765888", "total luciferase, z-score": 0.689, "Outcome": "inactive"}
{"target": "CEACAM22P", "PubChem SID": "SID160765889", "total luciferase, z-score": 1.1, "Outcome": "inactive"}
{"target": "H3C8", "PubChem SID": "SID160719898", "total luciferase, z-score": 3.64, "Outcome": "active"}
{"target": "H3C8", "PubChem SID": "SID160724162", "total luciferase, z-score": 1.08, "Outcome": "inactive"}
{"target": "H3C8", "PubChem SID": "SID160735037", "total luciferase, z-score": -0.217, "Outcome": "inactive"}
{"target": "KLC1", "PubChem SID": "SID160776324", "total luciferase, z-score": 2.23, "Outcome": "inactive"}
{"target": "KLC1", "PubChem SID": "SID160776327", "total luciferase, z-score": -0.823, "Outcome": "inactive"}
{"target": "KLC1", "PubChem SID": "SID160776328", "total luciferase, z-score": -0.393, "Outcome": "inactive"}
{"target": "CLRN3", "PubChem SID": "SID160755713", "total luciferase, z-score": -1.55, "Outcome": "inactive"}
{"target": "CLRN3", "PubChem SID": "SID160755714", "total luciferase, z-score": 0.0377, "Outcome": "inactive"}
{"target": "CLRN3", "PubChem SID": "SID160755715", "total luciferase, z-score": -0.136, "Outcome": "inactive"}
{"target": "IQCC", "PubChem SID": "SID160744179", "total luciferase, z-score": 0.767, "Outcome": "inactive"}
{"target": "IQCC", "PubChem SID": "SID160744180", "total luciferase, z-score": -0.251, "Outcome": "inactive"}
{"target": "IQCC", "PubChem SID": "SID160744182", "total luciferase, z-score": -0.181, "Outcome": "inactive"}
{"target": "C4BPB", "PubChem SID": "SID160729815", "total luciferase, z-score": 0.276, "Outcome": "inactive"}
{"target": "C4BPB", "PubChem SID": "SID160729824", "total luciferase, z-score": 1.55, "Outcome": "inactive"}
{"target": "C4BPB", "PubChem SID": "SID160729834", "total luciferase, z-score": 0.32, "Outcome": "inactive"}
{"target": "NDN", "PubChem SID": "SID160777826", "total luciferase, z-score": 0.621, "Outcome": "inactive"}
{"target": "NDN", "PubChem SID": "SID160777827", "total luciferase, z-score": -0.795, "Outcome": "inactive"}
{"target": "NDN", "PubChem SID": "SID160777828", "total luciferase, z-score": -0.787, "Outcome": "inactive"}

The list goes on, starting with the last 4 of the part before.
{"target": "C4BPB", "PubChem SID": "SID160729834", "total luciferase, z-score": 0.32, "Outcome": "inactive"}
{"target": "NDN", "PubChem SID": "SID160777826", "total luciferase, z-score": 0.621, "Outcome": "inactive"}
{"target": "NDN", "PubChem SID": "SID160777827", "total luciferase, z-score": -0.795, "Outcome": "inactive"}
{"target": "NDN", "PubChem SID": "SID160777828", "total luciferase, z-score": -0.787, "Outcome": "inactive"}
{"target": "PISD", "PubChem SID": "SID160736846", "total luciferase, z-score": 0.5, "Outcome": "inactive"}
{"target": "PISD", "PubChem SID": "SID160736847", "total luciferase, z-score": 2.51, "Outcome": "inactive"}
{"target": "PISD", "PubChem SID": "SID160736848", "total luciferase, z-score": -0.0484, "Outcome": "inactive"}
{"target": "ZNF503", "PubChem SID": "SID160752789", "total luciferase, z-score": 2.66, "Outcome": "inactive"}
{"target": "ZNF503", "PubChem SID": "SID160752790", "total luciferase, z-score": 0.0345, "Outcome": "inactive"}
{"target": "ZNF503", "PubChem SID": "SID160752791", "total luciferase, z-score": 0.00547, "Outcome": "inactive"}
{"target": "ITIH3", "PubChem SID": "SID160776031", "total luciferase, z-score": -0.509, "Outcome": "inactive"}
{"target": "ITIH3", "PubChem SID": "SID160776032", "total luciferase, z-score": 3.63, "Outcome": "active"}
{"target": "ITIH3", "PubChem SID": "SID160776033", "total luciferase, z-score": -0.379, "Outcome": "inactive"}
{"target": "UTF1", "PubChem SID": "SID160720020", "total luciferase, z-score": 1.52, "Outcome": "inactive"}
{"target": "UTF1", "PubChem SID": "SID160724174", "total luciferase, z-score": 1.5, "Outcome": "inactive"}
{"target": "UTF1", "PubChem SID": "SID160724175", "total luciferase, z-score": -1.39, "Outcome": "inactive"}
